Library screening results

Amino acid sequences for entries named in this document (tags omitted).
UniProt E9BF75, entry or part of it: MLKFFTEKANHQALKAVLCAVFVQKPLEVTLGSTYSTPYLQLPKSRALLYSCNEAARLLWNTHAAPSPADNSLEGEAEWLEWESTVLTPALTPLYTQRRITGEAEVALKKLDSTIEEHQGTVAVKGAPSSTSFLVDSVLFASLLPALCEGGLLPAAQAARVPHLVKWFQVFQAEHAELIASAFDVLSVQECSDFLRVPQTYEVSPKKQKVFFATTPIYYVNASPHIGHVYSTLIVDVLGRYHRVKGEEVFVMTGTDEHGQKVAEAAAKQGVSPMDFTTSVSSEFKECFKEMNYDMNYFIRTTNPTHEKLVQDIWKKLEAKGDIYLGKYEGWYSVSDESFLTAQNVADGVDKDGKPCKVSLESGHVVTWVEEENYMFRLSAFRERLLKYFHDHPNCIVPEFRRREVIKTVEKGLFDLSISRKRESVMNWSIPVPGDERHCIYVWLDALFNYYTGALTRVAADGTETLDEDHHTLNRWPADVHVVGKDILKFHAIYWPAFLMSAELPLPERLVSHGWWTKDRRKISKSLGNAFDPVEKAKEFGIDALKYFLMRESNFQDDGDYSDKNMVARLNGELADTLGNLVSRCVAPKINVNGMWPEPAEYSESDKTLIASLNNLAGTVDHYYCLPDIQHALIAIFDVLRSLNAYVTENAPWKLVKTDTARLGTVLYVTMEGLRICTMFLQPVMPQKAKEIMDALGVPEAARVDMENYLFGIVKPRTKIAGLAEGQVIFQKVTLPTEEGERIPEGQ

Data taken from ChEMBL document CHEMBL3988442, “University of Dundee, Small-Polar-MMV Screening Library” (2021).

All values are in %. How 0% and 100% were set is not recorded. Most values in the screen are low, and negative values occur. The compounds are a random part of those screened.

Mtb heat-shock: 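Assay on Mycobacterium tuberculosis, filed only as a heat shock assay from Cornell; the read-out is not stated. The concentration is filed as 10 mM, unlikely as a test dose, so the dose is not known. The record gives no direction; compounds that gave an IC50 in retests scored well above the rest, so higher reads as stronger inhibition. Size under these conditions: about 69,000 compounds, about 930 of them at 50% or above in at least one test.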
LdMetRS: 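Primary screen of methionyl-tRNA synthetase; the read-out is not stated. Target: Methionyl-tRNA synthetase (putative), Leishmania donovani (UniProt E9BF75). The test concentration is not given. The values are filed as inhibition. About 68,000 compounds were tested under these conditions; 0.035% (about 24) showed 50% or more at least once.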
Mtb growth Cornell: 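Whole-cell assay for inhibitors of Mycobacterium tuberculosis growth, labelled Cornell in the record; the read-out is not stated. The concentration is filed as 10 mM, unlikely as a test dose, so the dose is not known. The record gives no direction; compounds strong in two other growth screens of this library score well above the rest, so higher reads as stronger inhibition. About 53,000 compounds were tested under these conditions; 1.7% (about 900) showed 50% or more at least once.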

- CO[C@@H]1CCN(c2nnc(C)s2)C[C@@H]1Cc1cccc(C)c1.O=C(O)C(F)(F)F : Mtb heat-shock: 23.69%; Mtb growth Cornell: 41.6%
- CCCN1CCCN(C(=O)Nc2ccc3c(c2)OCO3)CC1 : Mtb heat-shock: 3.979%; LdMetRS: 14.52%; Mtb growth Cornell: 4.872%
- CN1CCOCC12CCN(c1ccc(C#N)cc1)CC2 : LdMetRS: 11.23%
- [H][C@@]12CCCC[C@]1(O)CCN(CC(N)=O)[C@H]2c1ccc2c(c1)OCO2 : Mtb heat-shock: 4.352%; Mtb growth Cornell: 6.54%
- Cc1cnccc1CN1CC[C@@](C)(O)[C@H](Oc2ccccc2)C1 : Mtb heat-shock: -23.91%; LdMetRS: 9.932%; Mtb growth Cornell: -29.82%
- O=C(NCCc1ccccn1)C1CC(=O)N(CC(F)(F)F)C1 (centres unmarked) : Mtb heat-shock: 9.693%; LdMetRS: 11.35%
- CNc1cc(N2CCCC2CNCc2ccccn2)ncn1 (centres unmarked) : Mtb heat-shock: -15.9%; LdMetRS: 13.33%; Mtb growth Cornell: -4.148%
- Cn1cc(N2CC3(CCN(Cc4ccoc4)CC3)OCC2=O)cn1 : LdMetRS: 10.66%
- Cc1nccn1C1CCCN(C(=O)c2sccc2-n2cnnn2)C1 (centres unmarked) : Mtb heat-shock: 6.194%; LdMetRS: 8.728%
- Fc1cccc(C2(CNC3CCSC3)CCOCC2)c1 (centres unmarked) : Mtb heat-shock: -1.752%; LdMetRS: -0.5263%; Mtb growth Cornell: 0.7698%
- COCCn1cnnc1Cn1ccnc1-c1ccoc1 : Mtb heat-shock: -21.88%; LdMetRS: 11.18%; Mtb growth Cornell: -12.79%
- COc1ccc(-c2noc(CN3CCOCC3C)n2)cc1OC (centres unmarked) : Mtb heat-shock: 3.952%; LdMetRS: 13.07%; Mtb growth Cornell: -3.017%
- c1cnc(N2CCCC(c3n[nH]c4ncccc34)C2)nc1 (centres unmarked) : Mtb heat-shock: -9.173%; LdMetRS: 5.882%
- CCn1ccnc1CN1CCCN(C(=O)c2cnc(C)cn2)CC1 : Mtb heat-shock: -5.609%; LdMetRS: 19.67%
- O=C(NCC1CCS(=O)(=O)C1)c1sccc1-c1ccc(F)cc1 (centres unmarked) : Mtb heat-shock: -12.52%; LdMetRS: 7.063%; Mtb growth Cornell: -31.44%
- CC(C)CC1(C(=O)NCCc2nncn2C2CC2)CCC1 : Mtb heat-shock: -12.5%; LdMetRS: 12.57%; Mtb growth Cornell: 27.51%
- COc1ccsc1C(=O)N1CCCC1c1c(C)nn(C)c1OC (centres unmarked) : Mtb heat-shock: -33.25%; LdMetRS: 13.04%; Mtb growth Cornell: 15.9%
- Cc1oc(-c2nc(C#N)c(N(C)C)o2)cc1S(=O)(=O)N1CCCC1 : Mtb heat-shock: 25.88%; LdMetRS: 11.2%
- Cc1nn(C)c(N(C)C)c1CNC1CCc2c(Cl)cccc21 (centres unmarked) : LdMetRS: 24.04%
- COCCOc1ccnc(-c2noc([C@@H]3CCCN3CC3CC3)n2)c1 : Mtb heat-shock: 6.228%; LdMetRS: 10.51%; Mtb growth Cornell: 12.15%
- COc1ccc(CN2CC[C@H](NC(C)=O)[C@@H](O)CC2)c(F)c1 : Mtb heat-shock: -3.706%; LdMetRS: 19.21%; Mtb growth Cornell: -67.03%
- O=C(O)C(F)(F)F.[H][C@@]12CCN(c3ccc(C)nn3)[C@@]1([H])CCN2C(=O)Cc1ccsc1 : Mtb heat-shock: 8.036%; Mtb growth Cornell: 7.556%
- CCCN(CCC)S(=O)(=O)NC(C)C(=O)N(C)C (centres unmarked) : Mtb heat-shock: 2.803%; LdMetRS: 11.02%; Mtb growth Cornell: -34.71%
- [H][C@@]12CN(c3cc(OC)ncn3)C[C@@H](C(=O)NCCOC)[C@]1([H])CCO2 : Mtb heat-shock: 8.083%; Mtb growth Cornell: -28.01%
- CCC1CN(CC(=O)Nc2cc(C)nn2C)CCO1 (centres unmarked) : Mtb heat-shock: 26.59%; LdMetRS: 7.216%; Mtb growth Cornell: 5.232%
- [H][C@@]12CN(C(=O)[C@H]3CCCO3)C[C@@]1([H])N(CC(C)C)C(=O)CO2 : Mtb heat-shock: -29.8%; Mtb growth Cornell: 16.1%
- Cc1nccc(NCc2cc3n(n2)CCCN(C(=O)C2CCC2)C3)n1 : Mtb heat-shock: -6.3%; LdMetRS: 13.5%; Mtb growth Cornell: -21.67%
- O=C(O)C(F)(F)F.c1cnc(N2CCCC3(CCN(CC4CCC4)C3)C2)nc1 (centres unmarked) : Mtb heat-shock: 1.597%; Mtb growth Cornell: -1.17%
- CCN1CCC2(C=C(C(=O)NC3CC3)c3ccccc32)CC1.O=C(O)C(F)(F)F : Mtb heat-shock: -9.893%; Mtb growth Cornell: 3.525%
- Cc1nn(C2CCCC2)c2c1C(c1ccc3c(c1)OCO3)SCC(=O)N2 (centres unmarked) : Mtb heat-shock: -26.01%; LdMetRS: 10.2%; Mtb growth Cornell: 17.19%
- CN1CCC2(CC1)CN(C(=O)c1cnccn1)Cc1ccccc12.O=C(O)C(F)(F)F : Mtb heat-shock: -17.46%; Mtb growth Cornell: 11.36%
- CCOCCN1CCN(C(C)C(=O)Nc2ccnn2C(C)C)CC1 (centres unmarked) : Mtb heat-shock: 15.96%
- Cc1ccc(N2CCCC3(COCCN(c4nccs4)C3)C2)nn1 (centres unmarked) : LdMetRS: 18.5%
- Cl.O=C(C1CC=CC1)N1CCC2(CC1)CNCCO2 : Mtb heat-shock: -14.66%; Mtb growth Cornell: 21.43%
- Cc1cc(CN2CCC(N(C)Cc3noc(C4CC4)n3)C2)no1 (centres unmarked) : Mtb heat-shock: -10.54%; LdMetRS: 4.571%; Mtb growth Cornell: -15.47%
- O=C(O)C1(Cc2ccc(F)cc2F)CCCN(Cc2ccccn2)C1 (centres unmarked) : Mtb heat-shock: 17.5%; LdMetRS: 14.78%

Some entries from above, unchanged:

| compound | Mtb heat-shock | LdMetRS | Mtb growth Cornell |
|---|---|---|---|
| `COc1ccsc1C(=O)N1CCCC1c1c(C)nn(C)c1OC` (centres unmarked) | -33.25 | 13.04 | 15.9 |
| `COCCn1cnnc1Cn1ccnc1-c1ccoc1` | -21.88 | 11.18 | -12.79 |